## Library screening results

Data taken from ChEMBL document CHEMBL3988442, “University of Dundee, Small-Polar-MMV Screening Library” (2021).

Mtb growth Cornell: 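Whole-cell assay for inhibitors of Mycobacterium tuberculosis growth, labelled Cornell in the record; the read-out is not stated. The concentration is filed as 10 mM, unlikely as a test dose, so the dose is not known. The record gives no direction; compounds strong in two other growth screens of this library score well above the rest, so higher reads as stronger inhibition. About 53,000 compounds were tested under these conditions; 1.7% (about 900) showed 50% or more at least once.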
Mtb heat-shock: 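Assay on Mycobacterium tuberculosis, filed only as a heat shock assay from Cornell; the read-out is not stated. The concentration is filed as 10 mM, unlikely as a test dose, so the dose is not known. Direction is inferred from retests: higher values go with stronger inhibition. Of about 69,000 compounds tested this way, about 930 (1.4%) reached 50% or more in at least one test.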

Values are the deposited “Percent Effect”, in %.
How 0% and 100% were set is not recorded. Most values in the screen are low, and negative values occur.
This is an unselected part of the compounds tested.
A dash means the value is not listed here; it may have been measured.

Compound	Mtb growth Cornell	Mtb heat-shock
Cc1ccc(C(=O)N2CCCC2c2nnc3n2CCCCC3)s1 (stereo not given)	11.67%	-2.933%
CCN(CC)C(=O)C1CCC2(CCNCC2)O1.Cl (stereo not given)	7.446%	-11.43%
NC(=O)CCN1CCc2onc(-c3ccccc3F)c2C1	21.93%	-24.54%
O=C(O)C(F)(F)F.[H][C@]12CN(Cc3cc(C)on3)C[C@@]1([H])OCCN(C(=O)c1ccco1)C2	16.61%	-0.5618%
CCc1nnc(CN(C)Cc2cccc(C(=O)Nc3cnn(C)c3)c2)o1	5.807%	-14.6%
O=C(O)C(F)(F)F.[H][C@]12CN(Cc3ccc(Cl)cc3)C[C@@]1([H])S(=O)(=O)CC[C@@H]2C(=O)NCC(C)C	28.25%	4.985%
CNC(=O)NC(=O)Cn1cc(-c2ccccc2)cn1	-	5.267%
COc1cccc(CNc2cnn(C)c(=O)c2Cl)c1	-	0.04505%
COCC1c2nnn(C)c2CCN1C(=O)CCc1cccc(OC)c1 (stereo not given)	-13.48%	22.04%
CNc1nc(C2CCCN2C(C)=O)nc2c1CN(CCO)CC2.O=CO (stereo not given)	-	-22.81%
CC(C)c1nccn1-c1cncc(C2CCCN2Cc2cccnc2)n1 (stereo not given)	9.351%	8.463%
CCc1cc(NCCc2cccnc2)n2nc(C)c(C)c2n1	-22.49%	66.22%
CNS(=O)(=O)c1ccc(CNC(=O)N(C)C(C)COC)cc1 (stereo not given)	-3.81%	-23.61%
COc1ccc(CCN2CCN(C(=O)c3scnc3C)CC2)cc1	0.8222%	16.93%
O=C(O)C(F)(F)F.[H][C@@]12COC[C@]1(CNC(=O)c1ccccc1)CN(Cc1nccs1)C2	-	-10.75%
O=C(Nc1nc2c(s1)CN(S(=O)(=O)C1CC1)CC2)c1c(F)cccc1F	0.32%	6.88%
CC(C)(C)CCNC(=O)c1ccc(Cl)c(NS(C)(=O)=O)c1	33.55%	-21.58%
CN(C)c1nccc(NC(=O)c2ccncc2)n1	-	2.092%
CC(NC(=O)NCCCc1n[nH]c(N)c1C#N)c1cccc(Cl)c1 (stereo not given)	-	-15.72%
CSCc1ccc(N(C)CC2CCCN(C(C)C)C2)nc1 (stereo not given)	6.138%	-11.02%
COc1ccc(C(=O)N(C2CC2)C2CC(=O)NC2=O)cc1 (stereo not given)	-4.741%	-1.15%
Cn1cc(N2CC3(CCN(S(C)(=O)=O)C3)CC2=O)cn1 (stereo not given)	3.275%	4.827%
Cc1ccc(=O)n(CC2(O)CCN(Cc3cnc(N(C)C)nc3)CC2)n1	-20.96%	-17.17%
COc1nc(N2CCC(CC(N)=O)CC2)ncc1Br	32.49%	-12.08%
Cc1ncc2c(n1)CN(CC(=O)Nc1cccnc1)CC2	-17.74%	-39.38%
Cc1cccc(CN2CCC3(CCCN(C(=O)N(C)C)C3)C2=O)n1.O=C(O)C(F)(F)F (stereo not given)	-18.6%	-23.94%
Cc1ccc(C(=O)NCCCN(C(C)C)S(C)(=O)=O)c(=O)[nH]1	-	-10.75%
O=C(Nc1cc(F)ccc1OCC1CCCO1)c1ccc(O)nc1 (stereo not given)	-	-19.04%
Cc1ccccc1C1CCN(C(=O)CCNS(C)(=O)=O)C1 (stereo not given)	-52.44%	7.056%
O=C(c1cnn(-c2ccccc2Cl)c1)N1CCN(CCO)CC1	-7.255%	-12.55%
O=C(O)C(F)(F)F.[H][C@@]12CCCO[C@]1([H])[C@H](NC(=O)c1cnoc1C)CN(C1CCC1)C2	-10.39%	25.58%
CCOc1cc(C(=O)NS(=O)(=O)c2cccc(C#N)c2)ccc1OC	23.18%	-13.23%
CNC(=O)[C@@H]1C[C@H](N)CN1Cc1cc2cc(C)cc(C)c2[nH]c1=O	15.89%	29.25%
COc1ccccc1NCC(=O)NCc1ccc(-c2ccn[nH]2)cc1	32.16%	-4.327%
[H][C@@]12CS(=O)(=O)C[C@]1([H])N(C(=O)Nc1cccc(F)c1)CCN2C(=O)CC	3.406%	7.876%
CC(C)Cn1nc(-c2ccc(C(=O)O)cc2)cc1-c1ccc(F)cc1	92.09%	39.77%
O=c1cc(Cn2ccnc2)nc2n1CCCN(Cc1ccncc1)C2	11.5%	-30.55%
CCCc1cc(NCc2noc(COC)n2)n2nccc2n1	5.118%	19.55%
CC(C)N(CCO)C(=O)C1CCC(=O)N(CCc2ccc(Cl)cc2)C1 (stereo not given)	-	-1.251%
CS(=O)(=O)NC1CCN(C(=O)CCC2CCCO2)CC1 (stereo not given)	-	-3.144%
CCN1CC2(CC1=O)CN(C(=O)N(C)C)CCN(S(C)(=O)=O)C2 (stereo not given)	30.43%	-1.306%
Cc1cc(NC(=O)CN2CCCC2Cn2nc(C)nc2C)on1 (stereo not given)	9.67%	-11%
[H][C@@]12CCN(Cc3cccnc3)C(=O)[C@@]1([H])CN(Cc1ccoc1)C2	-12.53%	-0.4055%
Cc1ccc(C(=O)N2CCC3(CC2)c2ccccc2[C@@H](N)[C@@H]3O)c(=O)[nH]1	10.23%	17.11%
Cc1ccccc1CC(=O)N1C[C@@H](O)[C@H](N2CCOCC2)C1	-3.9%	1.879%
Cc1ncc(C(=O)NCCNc2ncnc3sccc23)s1	2.78%	-10.03%

For reference, 5 entries once more:

With CC(C)N(CCO)C(=O)C1CCC(=O)N(CCc2ccc(Cl)cc2)C1 (stereo not given) the screen gave Mtb heat-shock: -1.251%.
With CC(C)c1nccn1-c1cncc(C2CCCN2Cc2cccnc2)n1 (stereo not given) the screen gave Mtb growth Cornell: 9.351%; Mtb heat-shock: 8.463%.
With CC(C)Cn1nc(-c2ccc(C(=O)O)cc2)cc1-c1ccc(F)cc1 the screen gave Mtb growth Cornell: 92.09%; Mtb heat-shock: 39.77%.
With Cc1ncc(C(=O)NCCNc2ncnc3sccc23)s1 the screen gave Mtb growth Cornell: 2.78%; Mtb heat-shock: -10.03%.
With Cc1ccc(C(=O)NCCCN(C(C)C)S(C)(=O)=O)c(=O)[nH]1 the screen gave Mtb heat-shock: -10.75%.